Results: paper PMC8119947
These are yes or no findings as the source states them, for the method shown. Binding seen in cells or lysates may run through a third protein. Some results given as binding are weak or reduced against the parent protein; the word gives no strength.

Chains of the proteins cited; added tags and fusions are not shown. Residues count along the entry.
UniProt P41597: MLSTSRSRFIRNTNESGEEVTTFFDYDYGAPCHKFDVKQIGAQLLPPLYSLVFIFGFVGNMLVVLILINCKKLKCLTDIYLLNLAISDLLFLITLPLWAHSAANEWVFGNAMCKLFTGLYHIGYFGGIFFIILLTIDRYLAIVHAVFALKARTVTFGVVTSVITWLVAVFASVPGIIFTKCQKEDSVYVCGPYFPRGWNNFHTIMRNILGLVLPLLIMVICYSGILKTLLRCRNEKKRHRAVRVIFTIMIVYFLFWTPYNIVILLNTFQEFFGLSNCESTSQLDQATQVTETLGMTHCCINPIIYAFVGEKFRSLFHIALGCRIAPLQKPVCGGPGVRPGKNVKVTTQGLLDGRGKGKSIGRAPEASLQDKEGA
UniProt P40763: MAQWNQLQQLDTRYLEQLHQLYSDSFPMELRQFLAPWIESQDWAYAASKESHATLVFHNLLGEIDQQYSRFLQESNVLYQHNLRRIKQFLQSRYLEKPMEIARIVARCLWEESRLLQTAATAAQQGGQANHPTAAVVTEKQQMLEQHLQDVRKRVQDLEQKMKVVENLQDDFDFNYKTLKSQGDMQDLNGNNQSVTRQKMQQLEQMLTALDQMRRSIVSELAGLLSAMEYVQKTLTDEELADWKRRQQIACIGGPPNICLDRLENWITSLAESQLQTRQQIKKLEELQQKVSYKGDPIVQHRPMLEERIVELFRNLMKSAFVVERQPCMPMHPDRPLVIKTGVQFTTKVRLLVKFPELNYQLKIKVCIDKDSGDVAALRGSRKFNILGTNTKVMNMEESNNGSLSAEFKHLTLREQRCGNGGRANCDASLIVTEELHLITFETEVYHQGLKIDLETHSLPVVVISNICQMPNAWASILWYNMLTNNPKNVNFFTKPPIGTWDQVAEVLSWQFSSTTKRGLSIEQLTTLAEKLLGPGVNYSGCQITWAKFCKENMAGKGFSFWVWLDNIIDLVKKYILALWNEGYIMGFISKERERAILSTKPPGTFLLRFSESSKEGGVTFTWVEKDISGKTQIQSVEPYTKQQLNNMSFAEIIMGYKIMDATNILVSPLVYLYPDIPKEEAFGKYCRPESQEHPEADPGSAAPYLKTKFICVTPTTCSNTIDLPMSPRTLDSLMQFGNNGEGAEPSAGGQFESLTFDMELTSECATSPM
UniProt P80098, residues 24-99: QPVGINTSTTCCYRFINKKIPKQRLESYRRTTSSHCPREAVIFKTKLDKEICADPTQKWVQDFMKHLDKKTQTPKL

Experiments:
[1] = molecular target: CCR2 (human (endogenous in HT29)) (UniProt P41597); assay: co-IP; lysate of dormant HT29 cells, pre-cleared 2 h at 4 °C with IgG and protein A + G agarose; CCR2 and CCL7 antibodies added at 4 °C overnight; blotted; cells with or without treatment with recombinant protein CCL7
[2] = molecular target: CCR2 (human (endogenous in HT29)) (UniProt P41597); assay: co-IP; lysate of dormant HT29 cells, pre-cleared 2 h at 4 °C with IgG and protein A + G agarose; CCR2 and CCL7 antibodies added at 4 °C overnight; blotted with CCR2 and CCL7 antibodies; source of the CCL7 (recombinant, added to the cells, or other) not told

| Substance | binding [1] | binding [2] |
| --- | --- | --- |
| STAT3 (from UniProt P40763 1-770) | binds |  |
| chemokine (C-C motif) ligand 7 (CCL7) (from UniProt P80098 24-99) |  | binds |
